For one substance, binding results are on record in article PMC3750411.

The target in experiment [1] is T1, human scavenger receptor class A type II (SR-AII) (human) (UniProt P21757).
T1 sequence: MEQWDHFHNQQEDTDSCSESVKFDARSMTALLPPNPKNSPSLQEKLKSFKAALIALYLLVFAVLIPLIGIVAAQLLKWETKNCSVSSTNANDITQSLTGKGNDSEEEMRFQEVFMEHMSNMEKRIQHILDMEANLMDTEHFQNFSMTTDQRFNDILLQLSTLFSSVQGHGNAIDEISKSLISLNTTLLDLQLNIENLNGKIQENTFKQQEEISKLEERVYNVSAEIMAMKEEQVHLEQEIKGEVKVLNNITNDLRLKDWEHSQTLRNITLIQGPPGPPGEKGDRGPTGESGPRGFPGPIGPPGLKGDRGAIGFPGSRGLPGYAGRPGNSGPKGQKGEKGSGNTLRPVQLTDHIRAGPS
Put plainly: co-IP; total lysates of transfected COS-7 cells; rabbit anti-human SR-A antibody on Dynabead protein G, overnight at 4°C; Western blot with anti-BiP antibody. On the technique in general: Immunoblotting shows a protein as a band on a membrane.

In experiment [2] the target is T2, human scavenger receptor class A type I (SR-AI) (human) (UniProt P21757).
T2 sequence: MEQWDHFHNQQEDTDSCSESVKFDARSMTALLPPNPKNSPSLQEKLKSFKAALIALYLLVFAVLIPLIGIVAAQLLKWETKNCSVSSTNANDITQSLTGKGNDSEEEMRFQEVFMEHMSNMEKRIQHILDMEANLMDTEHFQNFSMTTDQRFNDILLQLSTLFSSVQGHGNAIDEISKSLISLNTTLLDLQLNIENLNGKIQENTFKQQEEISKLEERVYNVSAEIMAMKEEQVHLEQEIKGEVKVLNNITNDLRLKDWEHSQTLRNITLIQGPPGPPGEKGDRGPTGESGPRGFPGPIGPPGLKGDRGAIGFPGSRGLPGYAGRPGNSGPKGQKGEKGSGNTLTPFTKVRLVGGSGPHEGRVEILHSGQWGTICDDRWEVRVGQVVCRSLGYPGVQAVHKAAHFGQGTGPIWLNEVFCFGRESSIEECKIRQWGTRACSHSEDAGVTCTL
The description is as above.

These are yes or no findings as the source states them, for the method shown. In cells and extracts the contact can be indirect.

For the substance BiP (monkey (endogenous in COS-7)), the binding result in experiment [1] and in experiment [2] was “no binding” each time.
